In the supplement of paper PMC8728848:
The other results are listed elsewhere or left out.

Legend:
Test in all cases: glycan array binding signal (z-score within array); higher = stronger binding
Conditions in all cases: glycan notation: IUPAC condensed, linker removed
[1] = biological target: Fuc(a1-2)[GalNAc(a1-3)]Gal(b1-4)[Fuc(a1-3)]GlcNAc
How it was run: (§1)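 Columns mapping to the same glycan were averaged after glycan names were converted to IUPAC-condensed notation. The data come from 3228 arrays in the Consortium for Functional Glycomics database, limited to those with an available protein sequence. Binding is reported as a within-array Z-score averaged across arrays of one protein sequence and across linkers.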

[2] = biological target: Fuc(a1-2)[GalNAc(a1-4)]Gal(b1-4)GlcNAc
How it was run: as §1

Fuc(a1-3)GlcNAc = biological target: Fuc(a1-3)GlcNAc
How it was run: as §1

[3] = biological target: Fuc(a1-3)[Gal(b1-4)]Glc6S
How it was run: as §1

[4] = biological target: Fuc(a1-3)[Gal(b1-4)]GlcNAc
How it was run: as §1

[5] = biological target: Fuc(a1-3)[Gal(b1-4)]GlcNAc(b1-3)Gal(b1-3)[Fuc(a1-4)]GlcNAc
How it was run: as §1

[6] = biological target: Fuc(a1-3)[Gal(b1-4)]GlcNAc(b1-4)Gal(b1-4)[Fuc(a1-3)]GlcNAc
How it was run: as §1

[7] = biological target: Fuc(a1-3)[Gal(b1-4)]GlcNAc(b1-4)Gal(b1-4)[Fuc(a1-3)]GlcNAc(b1-4)Gal(b1-4)[Fuc(a1-3)]GlcNAc
How it was run: as §1

[8] = biological target: Fuc(a1-3)[Gal(b1-4)]GlcNAc6S
How it was run: as §1

[9] = biological target: Fuc(a1-3)[Gal3S(b1-4)]Glc
How it was run: as §1

[10] = biological target: Fuc(a1-3)[Gal3S(b1-4)]Glc6S
How it was run: as §1

[11] = biological target: Fuc(a1-3)[Gal3S(b1-4)]GlcNAc
How it was run: as §1

[12] = biological target: Fuc(a1-3)[Gal3S(b1-4)]GlcNAc6S
How it was run: as §1

[13] = biological target: Fuc(a1-3)[GalNAc(b1-4)]Gal(b1-4)GlcNAc
How it was run: as §1

Fuc(a1-4)GlcNAc = biological target: Fuc(a1-4)GlcNAc
How it was run: as §1

Fuc(b1-3)GlcNAc = biological target: Fuc(b1-3)GlcNAc
How it was run: as §1

Gal(a1-2)Gal = biological target: Gal(a1-2)Gal
How it was run: as §1

Gal(a1-3)Gal = biological target: Gal(a1-3)Gal
How it was run: as §1

Gal(a1-3)Gal(b1-3)Glc = biological target: Gal(a1-3)Gal(b1-3)Glc
How it was run: as §1

Gal(a1-3)Gal(b1-3)GlcNAc = biological target: Gal(a1-3)Gal(b1-3)GlcNAc
How it was run: as §1

Gal(a1-3)Gal(b1-4)GlcNAc = biological target: Gal(a1-3)Gal(b1-4)GlcNAc
How it was run: as §1

[14] = biological target: Gal(a1-3)Gal(b1-4)[Fuc(a1-3)]GalNAc
How it was run: as §1

Gal(a1-3)GlcNAc = biological target: Gal(a1-3)GlcNAc
How it was run: as §1

[15] = biological target: Gal(a1-3)[Gal(a1-4)]Gal(b1-4)GlcNAc
How it was run: as §1

Gal(a1-4)Gal(b1-4)Gal = biological target: Gal(a1-4)Gal(b1-4)Gal
How it was run: as §1

Gal(a1-4)Gal(b1-4)GalNAc = biological target: Gal(a1-4)Gal(b1-4)GalNAc
How it was run: as §1

Gal(a1-4)GlcNAc = biological target: Gal(a1-4)GlcNAc
How it was run: as §1

Gal(a1-6)Glc = biological target: Gal(a1-6)Glc
How it was run: as §1

Gal(b1-2)Gal = biological target: Gal(b1-2)Gal
How it was run: as §1

Gal(b1-3)Gal = biological target: Gal(b1-3)Gal
How it was run: as §1

Gal(b1-3)GalNAc = biological target: Gal(b1-3)GalNAc
How it was run: as §1

[16] = biological target: Gal(b1-3)GalNAc(b1-3)Gal(a1-4)Gal(b1-4)Glc
How it was run: as §1

[17] = biological target: Gal(b1-3)GalNAc(b1-3)Gal(b1-4)Glc
How it was run: as §1

[18] = biological target: Gal(b1-3)GalNAc(b1-3)Gal(b1-4)GlcNAc
How it was run: as §1

[19] = biological target: Gal(b1-3)GalNAc(b1-4)Gal(b1-4)Glc
How it was run: as §1

[20] = biological target: Gal(b1-3)GalNAc(b1-4)[Neu5Ac(a2-3)]Gal(b1-4)Glc
How it was run: as §1

[21] = biological target: Gal(b1-3)GlcNAc(b1-3)Gal(b1-3)GlcNAc
How it was run: as §1

[22] = biological target: Gal(b1-3)[Fuc(a1-4)]GlcNAc
How it was run: as §1

[23] = biological target: Gal(b1-3)[Fuc(a1-4)]GlcNAc(b1-3)Gal(b1-3)[Fuc(a1-4)]GlcNAc
How it was run: as §1

[24] = biological target: Gal(b1-3)[Fuc(a1-4)]GlcNAc(b1-3)Gal(b1-4)GlcNAc
How it was run: as §1

[25] = biological target: Gal(b1-3)[Fuc(a1-4)]GlcNAc(b1-3)Gal(b1-4)[Fuc(a1-3)]GlcNAc
How it was run: as §1

[26] = biological target: Gal(b1-3)[GlcNAc(b1-6)]GalNAc
How it was run: as §1

[27] = biological target: Gal(b1-3)[GlcNAc(b1-6)]GlcNAc
How it was run: as §1

[28] = biological target: Gal(b1-3)[Neu5Ac(a2-6)]GalNAc
How it was run: as §1

[29] = biological target: Gal(b1-3)[Neu5Ac(a2-6)]GlcNAc
How it was run: as §1

B1: MLTim-4 (Mus musculus), Q6U7R4 (protein)
chain: MSKGLLLLWLVTELWWLYLTPAASEDTIIGFLGQPVTLPCHYLSWSQSRNSMCWGKGSCPNSKCNAELLRTDGTRIISRKSTKYTLLGKVQFGEVSLTISNTNRGDSGVYCCRIEVPGWFNDVKKNVRLELRRAT
glycan array binding signal (z-score) [1]: 0.41 | glycan array binding signal (z-score) [2]: -0.177 | glycan array binding signal (z-score) (Fuc(a1-3)GlcNAc): -0.545 | glycan array binding signal (z-score) [3]: 2.31 | glycan array binding signal (z-score) [4]: -0.495 | glycan array binding signal (z-score) [5]: -0.305 | glycan array binding signal (z-score) [6]: 0.496 | glycan array binding signal (z-score) [7]: -1.27 | glycan array binding signal (z-score) [8]: 0.768 | glycan array binding signal (z-score) [9]: -0.746 | glycan array binding signal (z-score) [10]: 0.474 | glycan array binding signal (z-score) [11]: -0.632 | glycan array binding signal (z-score) [12]: -0.443 | glycan array binding signal (z-score) [13]: 0.38 | glycan array binding signal (z-score) (Fuc(a1-4)GlcNAc): -0.125 | glycan array binding signal (z-score) (Fuc(b1-3)GlcNAc): -0.108 | glycan array binding signal (z-score) (Gal(a1-2)Gal): -0.369 | glycan array binding signal (z-score) (Gal(a1-3)Gal): -0.358 | glycan array binding signal (z-score) (Gal(a1-3)Gal(b1-3)Glc): -0.013 | glycan array binding signal (z-score) (Gal(a1-3)Gal(b1-3)GlcNAc): 0.452 | glycan array binding signal (z-score) (Gal(a1-3)Gal(b1-4)GlcNAc): -0.539 | glycan array binding signal (z-score) [14]: -0.303 | glycan array binding signal (z-score) (Gal(a1-3)GlcNAc): 0.41 | glycan array binding signal (z-score) [15]: -0.284 | glycan array binding signal (z-score) (Gal(a1-4)Gal(b1-4)Gal): 0.491 | glycan array binding signal (z-score) (Gal(a1-4)Gal(b1-4)GalNAc): -0.456 | glycan array binding signal (z-score) (Gal(a1-4)GlcNAc): 0.193 | glycan array binding signal (z-score) (Gal(a1-6)Glc): 0.212 | glycan array binding signal (z-score) (Gal(b1-2)Gal): 1.47 | glycan array binding signal (z-score) (Gal(b1-3)Gal): 0.543 | glycan array binding signal (z-score) (Gal(b1-3)GalNAc): 0.057 | glycan array binding signal (z-score) [16]: -0.243 | glycan array binding signal (z-score) [17]: -1.06 | glycan array binding signal (z-score) [18]: -0.928 | glycan array binding signal (z-score) [19]: -0.32 | glycan array binding signal (z-score) [20]: -0.834 | glycan array binding signal (z-score) [21]: -0.226 | glycan array binding signal (z-score) [22]: -0.424 | glycan array binding signal (z-score) [23]: 0.784 | glycan array binding signal (z-score) [24]: -0.367 | glycan array binding signal (z-score) [25]: -0.44 | glycan array binding signal (z-score) [26]: 0.397 | glycan array binding signal (z-score) [27]: 0.058 | glycan array binding signal (z-score) [28]: -0.297 | glycan array binding signal (z-score) [29]: 0.218
